Values of other authors in US20210220420A1, “BOTANICAL COMPOSITIONS OF SALVIA O[…] ACTIVITY IN EXTENDING CHR[…] AND METHODS OF USE” (priority 2016, published 2021).
At least one structure is not confirmed: it was looked up by name or label, or the drawing left a doubt.

How the values were obtained:
[1] = tested on: Yeast; conditions: acting via TORC1; cited from earlier work
[2] = tested on: elderly mice; conditions: cited from earlier work

## CO[C@H]1C[C@@H]2CC[C@@H](C)[C@@](O)(O2)C(=O)C(=O)N2CCCC[C@H]2C(=O)O[C@H]([C@H](C)C[C@@H]2CC[C@@H](O)[C@H](OC)C2)CC(=O)[C@H](C)/C=C(\C)[C@@H](O)[C@@H](OC)C(=O)[C@H](C)C[C@H](C)/C=C/C=C/C=C/1C [Rapamycin]
[1]
  extension of chronological lifespan: 230%
[2]
  extension of life: 9-14%
